# Results: the supplement of paper PMC8728848
# Some of the results follow.
# Columns and labels:
# Experiment in all cases: glycan array binding signal (z-score within array); higher = stronger binding
# Settings in all cases: glycan notation: IUPAC condensed, linker removed
# Gal(a1-3)Gal(b1-3)GlcNAc = target: Gal(a1-3)Gal(b1-3)GlcNAc
# How it was run: (§1)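 Columns mapping to the same glycan were averaged after glycan names were converted to IUPAC-condensed notation. The data come from 3228 arrays in the Consortium for Functional Glycomics database, limited to those with an available protein sequence. Binding is reported as a within-array Z-score averaged across arrays of one protein sequence and across linkers.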
# [1] = target: Gal(a1-3)Gal(b1-3)GlcNAc(b1-2)Man
# How it was run: as §1
# [2] = target: Gal(a1-3)Gal(b1-3)GlcNAc(b1-2)Man(a1-3)[Gal(a1-3)Gal(b1-3)GlcNAc(b1-2)Man(a1-6)]Man(b1-4)GlcNAc(b1-4)GlcNAc
# How it was run: as §1
# [3] = target: Gal(a1-3)Gal(b1-3)GlcNAc(b1-3)GalNAc
# How it was run: as §1
# [4] = target: Gal(a1-3)Gal(b1-3)GlcNAc(b1-6)GalNAc
# How it was run: as §1
# [5] = target: Gal(a1-3)Gal(b1-3)[Fuc(a1-4)]GlcNAc(b1-2)Man(a1-3)[Gal(a1-3)Gal(b1-3)[Fuc(a1-4)]GlcNAc(b1-2)Man(a1-6)]Man(b1-4)GlcNAc(b1-4)GlcNAc
# How it was run: as §1
# Gal(a1-3)Gal(b1-4)Glc = target: Gal(a1-3)Gal(b1-4)Glc
# How it was run: as §1
# Gal(a1-3)Gal(b1-4)GlcNAc = target: Gal(a1-3)Gal(b1-4)GlcNAc
# How it was run: as §1
# [6] = target: Gal(a1-3)Gal(b1-4)GlcNAc(b1-2)Man
# How it was run: as §1
# [7] = target: Gal(a1-3)Gal(b1-4)GlcNAc(b1-2)Man(a1-3)[Gal(a1-3)Gal(b1-4)GlcNAc(b1-2)Man(a1-6)]Man(b1-4)GlcNAc(b1-4)GlcNAc
# How it was run: as §1
# [8] = target: Gal(a1-3)Gal(b1-4)GlcNAc(b1-3)GalNAc
# How it was run: as §1
# [9] = target: Gal(a1-3)Gal(b1-4)GlcNAc(b1-6)GalNAc
# How it was run: as §1
# [10] = target: Gal(a1-3)Gal(b1-4)[Fuc(a1-3)]GlcNAc
# How it was run: as §1
# [11] = target: Gal(a1-3)Gal(b1-4)[Fuc(a1-3)]GlcNAc(b1-2)Man(a1-3)[Gal(a1-3)Gal(b1-4)[Fuc(a1-3)]GlcNAc(b1-2)Man(a1-6)]Man(b1-4)GlcNAc(b1-4)GlcNAc
# How it was run: as §1
# Gal(a1-3)GalNAc = target: Gal(a1-3)GalNAc
# How it was run: as §1
# [12] = target: Gal(a1-3)[Gal(a1-4)]Gal(b1-4)GlcNAc
# How it was run: as §1
# [13] = target: Gal(a1-4)Gal(b1-3)GlcNAc(b1-2)Man(a1-3)[Gal(a1-4)Gal(b1-3)GlcNAc(b1-2)Man(a1-6)]Man(b1-4)GlcNAc(b1-4)GlcNAc
# How it was run: as §1
# Gal(a1-4)Gal(b1-4)Glc = target: Gal(a1-4)Gal(b1-4)Glc
# How it was run: as §1
# Gal(a1-4)Gal(b1-4)GlcNAc = target: Gal(a1-4)Gal(b1-4)GlcNAc
# How it was run: as §1
# [14] = target: Gal(a1-4)Gal(b1-4)GlcNAc(b1-2)Man(a1-3)[Gal(a1-4)Gal(b1-4)GlcNAc(b1-2)Man(a1-6)]Man(b1-4)GlcNAc(b1-4)GlcNAc
# How it was run: as §1
# [15] = target: Gal(a1-4)Gal(b1-4)GlcNAc(b1-3)Gal(b1-4)Glc
# How it was run: as §1
# Gal(a1-4)GlcNAc = target: Gal(a1-4)GlcNAc
# How it was run: as §1
# Gal(a1-6)Glc = target: Gal(a1-6)Glc
# How it was run: as §1
# Gal(b1-2)Gal = target: Gal(b1-2)Gal
# How it was run: as §1
# Gal(b1-3)Gal = target: Gal(b1-3)Gal
# How it was run: as §1
# Gal(b1-3)Gal(b1-4)GlcNAc = target: Gal(b1-3)Gal(b1-4)GlcNAc
# How it was run: as §1
binder,measurement,setting,value
KILRGVCKKIMRTFLRRISKDILTGKK [NK2 (Sus scrofa)],glycan array binding signal (z-score),Gal(a1-3)Gal(b1-3)GlcNAc,-0.154
same,glycan array binding signal (z-score),[1],-0.273
same,glycan array binding signal (z-score),[2],0.062
same,glycan array binding signal (z-score),[3],-0.544
same,glycan array binding signal (z-score),[4],0.652
same,glycan array binding signal (z-score),[5],0.189
same,glycan array binding signal (z-score),Gal(a1-3)Gal(b1-4)Glc,0.052
same,glycan array binding signal (z-score),Gal(a1-3)Gal(b1-4)GlcNAc,0.172
same,glycan array binding signal (z-score),[6],0.063
same,glycan array binding signal (z-score),[7],0.776
same,glycan array binding signal (z-score),[8],0.826
same,glycan array binding signal (z-score),[9],0.752
same,glycan array binding signal (z-score),[10],-1.01
same,glycan array binding signal (z-score),[11],0.385
same,glycan array binding signal (z-score),Gal(a1-3)GalNAc,-0.59
same,glycan array binding signal (z-score),[12],-0.12
same,glycan array binding signal (z-score),[13],0.677
same,glycan array binding signal (z-score),Gal(a1-4)Gal(b1-4)Glc,-0.166
same,glycan array binding signal (z-score),Gal(a1-4)Gal(b1-4)GlcNAc,-0.334
same,glycan array binding signal (z-score),[14],-0.052
same,glycan array binding signal (z-score),[15],0.785
same,glycan array binding signal (z-score),Gal(a1-4)GlcNAc,-0.801
same,glycan array binding signal (z-score),Gal(a1-6)Glc,-1.14
same,glycan array binding signal (z-score),Gal(b1-2)Gal,-0.908
same,glycan array binding signal (z-score),Gal(b1-3)Gal,-0.234
same,glycan array binding signal (z-score),Gal(b1-3)Gal(b1-4)GlcNAc,-0.475

# Part of the list above in another layout.
binder	measurement	setting	value
KILRGVCKKIMRTFLRRISKDILTGKK [NK2 (Sus scrofa)]	glycan array binding signal (z-score)	[1]	-0.273
same	glycan array binding signal (z-score)	[2]	0.062
